# PubChem BioAssay AID1053208 | Peter MacCallum Cancer Centre – 2014
# Assay: 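Synthetic lethal interactions between gene loss and doxorubicin in osteosarcoma cells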 (primary screen)
# Cells: mouse osteosarcoma cells, early-passage culture from an engineered mouse model of fibroblastic bone tumour
# Reagents: siRNA pool against mouse genes, 40 nM
# Duration: about 120 h (48 h before drug, then 72 h with drug)
# Challenge: doxorubicin 100 nM for 72 h, roughly 30-40% inhibitory dose
# Measured: 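Luminescent ATP signal taken as viability with or without 100 nM doxorubicin for 72 h; mean of two wells set against non-targeting siRNA and turned into robust z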
# Reading the numbers: viability z-score with doxorubicin and doxorubicin viability vs non-targeting: higher = more viable cells under doxorubicin; viability z-score without drug: higher = more viable cells with knock-down alone; z-score of drug to no-drug ratio: higher = less drug sensitisation by knock-down
# Call rule: 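Called active if knock-down leaves viability unchanged without drug (z within -2 to 2) but lowers it with doxorubicin (z at or under -2)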
# This is a random part of about 17,000 reagents tested. Of all reagents, 788 (4.7%) are marked active. 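Calls rest on z-score classes alone; an extra cut-off of viability at most 70% of control was not applied to them.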 A number with no mark means an inactive call. The numbers tell different reagents against one gene apart.
The opening 3 records, ahead of the listing:
Gene,pool no.,combined z-score class,viability z-score with doxorubicin,viability z-score without drug,z-score of drug to no-drug ratio,doxorubicin viability vs non-targeting
Rab31,1,no change with or without drug,0.67,0.34,0.56,1
Slamf1,1,high cell count without drug only,0.9,2.02,-0.34,1.02
Cyp2d9,1,no change with or without drug,-1.35,-0.34,-1.12,0.82

The listing, from the start:
Gene,pool no.,combined z-score class,viability z-score with doxorubicin,viability z-score without drug,z-score of drug to no-drug ratio,doxorubicin viability vs non-targeting
Rab31,1,no change with or without drug,0.67,0.34,0.56,1
Slamf1,1,high cell count without drug only,0.9,2.02,-0.34,1.02
Cyp2d9,1,no change with or without drug,-1.35,-0.34,-1.12,0.82
D830039M14Rik,1,no change with or without drug,0,-0.17,0.22,0.94
Nalcn,1,no change with or without drug,0.45,0.17,0.45,0.98
Fibin,1,no change with or without drug,-0.67,-0.51,-0.22,0.88
Slc19a3,1,low cell count with and without drug,-4.27,-3.2,-2.7,0.56
Uck2,1,low cell count without drug only,-1.46,-2.53,0.34,0.81
Crispld1,1,no change with or without drug,1.12,1.18,0.45,1.04
Dok7,1,no change with or without drug,0.34,0.84,-0.11,0.97
Or6ae1,1,no change with or without drug,0.22,0.17,0.22,0.96
Cdk16,1,no change with or without drug,-0.22,-0.51,0.22,0.92
Ago2,1,no change with or without drug,-0.56,1.18,-1.24,0.89
Gprc6a,1,high cell count with doxorubicin only,2.25,1.18,1.57,1.14
Or14j10,1,no change with or without drug,-0.79,-0.84,-0.11,0.87
Hmgb1,1,no change with or without drug,-0.34,-0.51,0.11,0.91
Tspan14,1,no change with or without drug,-0.67,-0.84,0,0.88
Hoxa7,1,low cell count with doxorubicin only (active),-2.47,-1.85,-1.35,0.72
Marveld3,1,no change with or without drug,-0.11,-0.51,0.34,0.93
Ryr1,1,no change with or without drug,-0.22,0.51,-0.45,0.92
Cers4,1,no change with or without drug,-1.46,-0.17,-1.35,0.81
Dedd2,1,no change with or without drug,-0.34,0.17,-0.34,0.91
Igfbpl1,1,no change with or without drug,-1.12,-0.34,-0.9,0.84
Cyp2a4,1,no change with or without drug,-0.22,-0.51,0.22,0.92
Tas2r104,1,no change with or without drug,0.45,1.18,-0.22,0.98
Zkscan14,1,high cell count without drug only,1.69,2.02,0.45,1.09
Ly6g5c,1,no change with or without drug,1.57,0.51,1.35,1.08
Cyb5rl,1,no change with or without drug,0.67,1.18,0,1
Pde3b,1,no change with or without drug,0.11,1.35,-0.67,0.95
Ccdc125,1,low cell count without drug only,-1.12,-2.87,1.12,0.84
Ttr,1,no change with or without drug,1.46,1.01,0.9,1.07
Atf7ip2,1,no change with or without drug,0.67,0.67,0.34,1
Atf7ip2,2,no change with or without drug,0.34,1.52,-0.56,0.97
Oxct2a,1,no change with or without drug,-1.35,0.17,-1.46,0.82
